PubChem BioAssay AID1347075 (National Center for Advancing Translational Sciences (NCATS), 2019)
In all, about 400,000 compounds went through this assay and about 5,500 (1.4%) were called active. Inconclusive means that the source gave no clear call. Such entries were picked first, then a sample of the others. Calls follow the shape of the dose curve; as a rule, active = well fitted cell-killing curve with a large enough effect; inconclusive = small, poorly fitted or top-dose-only effect, or effect the other way; inactive = flat fitted curve, though single readings scatter. A potency beside an inconclusive call is a rough fit, not a confirmed value.

Assay: qHTS assay for MDR1-selective chemotherapeutics: Primary screen using the parental adenocarcinoma cell KB-3-1; also: nearly all actives have a fitted effect of over 60% in size
Conditions: KB-3-1 viability, CellTiter-Glo ATP luminescence, 72 h; series mostly up to 46.1 µM
Method in brief: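 Cytotoxicity measured as CellTiter-Glo luminescence after 72 h at 37 C. Compound titrations were pinned onto drug-naive KB-3-1 parental adenocarcinoma cells grown in DMEM with 10% FBS, and normalized data fitted to concentration-response curves.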
Potency is read from the fitted curve at half-maximal effect.

Row | Compound | Potency
1 | COc1cc2c(cc1OC)C(COc1ccc(F)cc1)N(C(=O)Cc1ccc(F)cc1)CC2 (centres undefined) | inconclusive: 5.8 µM [cytotoxic, partial curve, poor fit]
2 | Cc1ccc(CNC(=O)CSc2c3c(nc4cc(Cl)ccc24)CCCC3)o1 | inconclusive: 14.6 µM [cytotoxic, single point]
3 | CCN(CC)S(=O)(=O)c1cc(C(=O)NC2CCCCC2)ccc1C | inactive
4 | CCn1nc(C)c(/C=N/NC(=O)c2ccc3c(c2)c(C)c(C)n3Cc2ccccc2)c1C | inconclusive: 29.1 µM [cytotoxic, single point]
5 | CCOc1ccc(OCC)c(S(=O)(=O)N2CCN(c3cccc(C)c3C)CC2)c1 | inactive
6 | COc1ccc(NS(=O)(=O)c2c(C(=O)N3CCCCCC3)c(C)n(C)c2C)cc1 | inconclusive: 29.1 µM [cytotoxic, single point]
7 | CC(=O)c1ccc(N2CCN(C(C)C(=O)NC3CCCc4ccccc43)CC2)cc1 (centres undefined) | active: 20.6 µM
8 | COc1cc(C(=O)NNC(=S)Nc2ccc(S(N)(=O)=O)cc2)cc(OC)c1OC | inconclusive: 0.517 µM [cytotoxic, full curve, poor fit]
9 | O=C(c1ccccc1)C(Cn1cncn1)C(Sc1ccccc1)c1ccccc1 (centres undefined) | inconclusive: 23.1 µM [cytotoxic, single point]
10 | Cc1ccc(CN(C(=O)COc2cccc([N+](=O)[O-])c2)c2ccccn2)cc1 | inconclusive: 29.1 µM [cytotoxic, single point]
11 | CCOC(=O)C1CCN(c2ncnc3c2nnn3C)CC1 | inactive
12 | CN(Cc1ccccc1)c1ccc(C(CC(N)=O)NC(=O)c2ccc(Br)cc2)cc1[N+](=O)[O-] (centres undefined) | inconclusive: 29.1 µM [cytotoxic, single point]
13 | Cc1c(C)c2ccc(OCC(=O)Nc3cccnc3)c(C)c2oc1=O | inactive
14 | CC(=O)NNC(=O)c1csc(Cc2c(Cl)sc3ccc(Cl)cc23)n1 | inconclusive: 18.4 µM [cytotoxic, single point]
15 | O=C(NNC(=O)c1cc(-c2ccccc2)nc2ccccc12)c1csc(N2CCOCC2)n1 | inactive
16 | O=C(NCCCc1ccccc1)c1cc(COc2ccc(F)cc2Cl)on1 | inactive
17 | COc1ccc(OC)c(NC(=O)Cc2coc3ccc4ccccc4c23)c1 | inconclusive: 14.1 µM [cytotoxic, partial curve, poor fit]
18 | O=C(COc1ccccc1O)NNc1ccccc1 | inconclusive: 29.1 µM [cytotoxic, partial curve]
19 | COc1ccc(S(=O)(=O)N2CCC(n3c(C(F)(F)F)nc4cccnc43)CC2)cc1OC | inconclusive: 23.1 µM [cytotoxic, single point]
20 | Cc1cccc(NC(=O)CSc2nnc(CNC(=O)c3ccco3)n2C)c1 | inconclusive: 9.2 µM [rising, partial curve]
21 | Cc1cccc(Nc2nnc(SCC(=O)NC3CCCc4ccccc43)s2)c1 (centres undefined) | inconclusive: 23.1 µM [cytotoxic, single point]
22 | O=C(CSc1ncccn1)N/N=C/c1cccc([N+](=O)[O-])c1 | inconclusive: 29.1 µM [cytotoxic, single point]

Row | Compound | Potency
23 | O=C(CCc1cn2ccccc2n1)NC1CCCc2c1cnn2-c1ccccc1F (centres undefined) | inconclusive: 20.6 µM [rising, single point]
24 | Cc1cccc(OCC(=O)Nc2ccc3oc(=O)ccc3c2)c1 | inactive
25 | CCOc1cc(CNCc2cc(OC)cc(OC)c2)ccc1OC | inactive
26 | COc1ccc(C(C)=O)cc1COC(=O)c1ccc(S(=O)(=O)N(C)C)cc1 | inactive
27 | Cc1nc2c(OCCC3CCCCC3)cccn2c1N(C)C(=O)CCC1CCCC1 | inconclusive: 29.1 µM [cytotoxic, single point]
28 | Cc1ccc(CC(CC(=O)O)C(=O)NCc2ccccc2)cc1 (centres undefined) | inconclusive: 0.461 µM [rising, partial curve, poor fit]
29 | O=C(NC1(Cc2ccccc2)CCN(Cc2ccc(-c3ccccc3)cc2)C1=O)c1ccccc1 (centres undefined) | inconclusive: 29.1 µM [cytotoxic, single point]
30 | O=c1[nH]nc(Br)c(=O)n1C(c1ccccc1)c1ccccc1 | inconclusive: 23.1 µM [cytotoxic, single point]
31 | Cc1ccc(NC(=O)CCl)cc1S(=O)(=O)N1CCCCCC1 | inconclusive: 20.6 µM [cytotoxic, single point]
32 | CN1CCCC(n2nc(Cc3ccc(Cl)cc3)c3ccccc3c2=O)CC1 (centres undefined) | active: 6.51 µM
33 | COCCSc1nnc(NC(=O)Cc2ccc(OC)c(OC)c2)s1 | inconclusive: 18.4 µM [cytotoxic, partial curve, poor fit]
34 | O=C(Nc1ccc(Br)cc1)c1cccc(S(=O)(=O)Nc2cnc3ccccc3c2)c1 | inactive
35 | COc1ccc(-c2c([C@H]3[C@@H]4C=CCC[C@@]4(C)C(=O)N3Cc3ccccc3)ccc3ccccc23)cc1OC | inconclusive: 29.1 µM [cytotoxic, single point]
36 | CCOC(=O)N/N=C/c1cc(C)n(-c2ccccc2)c1C | inactive
37 | Cc1c(NS(=O)(=O)c2cccc(C(=O)Nc3ccc(SC(F)F)cc3)c2)c(=O)n(-c2ccccc2)n1C | inconclusive: 16.4 µM [cytotoxic, single point]
38 | COc1cccc(-n2c(SCC(=O)NC3CCCCC3)nc3n[nH]c(C)c3c2=N)c1 | active: 13 µM
39 | CC(=O)Nc1ncc(Cc2cccc(Cl)c2)s1 | inconclusive: 29.1 µM [cytotoxic, single point]
40 | O=C(CSc1nc2ccccc2nc1Cc1ccccc1)Nc1ccc2c(c1)OCO2 | inconclusive: 1.3 µM [rising, partial curve, poor fit]
41 | COc1cc(C(=O)COC(=O)c2c(C)noc2C)cc(OC)c1OC | inactive
42 | CC(C)NS(=O)(=O)c1ccc2nc(NC(=O)c3cncc(Br)c3)sc2c1 | inactive
43 | CCOC(=O)N1CCC(Nc2cccc(SC)c2)CC1 | inactive
44 | CN1CCC2(CC1)Nc1nc(SCc3ccc(Cl)cc3)nn1C1=C2CN(C)CC1 | inconclusive: 32.6 µM [cytotoxic, single point]

Compounds 29 to 30, reprinted for reference:
Row | Compound | Potency
29 | O=C(NC1(Cc2ccccc2)CCN(Cc2ccc(-c3ccccc3)cc2)C1=O)c1ccccc1 (centres undefined) | inconclusive: 29.1 µM [cytotoxic, single point]
30 | O=c1[nH]nc(Br)c(=O)n1C(c1ccccc1)c1ccccc1 | inconclusive: 23.1 µM [cytotoxic, single point]
